No constants are given. Whether binding was seen depends on the method and setting. In cells and extracts the contact can be indirect. A yes stands for co-enrichment or nearness to the bait. Other partners may have been found. Tags and fused reporters may be left off the sequences shown.
Biological target: T1, Flag-SLC26A3 (wild type) (human) (UniProt P40879)
T1 sequence: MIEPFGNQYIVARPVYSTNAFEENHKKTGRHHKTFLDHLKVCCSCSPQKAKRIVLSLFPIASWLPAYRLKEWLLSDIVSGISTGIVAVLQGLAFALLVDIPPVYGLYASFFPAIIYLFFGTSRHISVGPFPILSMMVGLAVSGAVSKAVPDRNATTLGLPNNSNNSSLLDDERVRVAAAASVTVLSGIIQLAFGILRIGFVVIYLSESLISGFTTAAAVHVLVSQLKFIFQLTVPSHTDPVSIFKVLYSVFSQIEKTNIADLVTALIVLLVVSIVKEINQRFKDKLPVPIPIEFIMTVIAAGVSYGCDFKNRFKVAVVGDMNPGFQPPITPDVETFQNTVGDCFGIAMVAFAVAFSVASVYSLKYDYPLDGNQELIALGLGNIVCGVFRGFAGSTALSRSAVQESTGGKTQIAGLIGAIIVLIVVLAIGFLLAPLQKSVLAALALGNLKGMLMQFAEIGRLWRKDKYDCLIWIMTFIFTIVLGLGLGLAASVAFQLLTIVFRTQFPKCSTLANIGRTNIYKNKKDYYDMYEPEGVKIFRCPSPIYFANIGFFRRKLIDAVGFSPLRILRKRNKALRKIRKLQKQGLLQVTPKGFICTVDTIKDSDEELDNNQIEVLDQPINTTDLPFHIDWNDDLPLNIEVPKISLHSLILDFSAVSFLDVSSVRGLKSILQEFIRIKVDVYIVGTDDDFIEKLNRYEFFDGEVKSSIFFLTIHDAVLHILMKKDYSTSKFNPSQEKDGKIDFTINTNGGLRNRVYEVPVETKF
Assay: affinity purification with mass spectrometry; Flag-SLC26A3 or empty vector transfected into HEK293T; co-immunoprecipitation with anti-Flag antibody; SDS-PAGE, Coomassie, gel lanes to mass spectrometry

Sequences of proteins named here, by UniProt entry; tags and fusion partners are left off.
UniProt Q15599: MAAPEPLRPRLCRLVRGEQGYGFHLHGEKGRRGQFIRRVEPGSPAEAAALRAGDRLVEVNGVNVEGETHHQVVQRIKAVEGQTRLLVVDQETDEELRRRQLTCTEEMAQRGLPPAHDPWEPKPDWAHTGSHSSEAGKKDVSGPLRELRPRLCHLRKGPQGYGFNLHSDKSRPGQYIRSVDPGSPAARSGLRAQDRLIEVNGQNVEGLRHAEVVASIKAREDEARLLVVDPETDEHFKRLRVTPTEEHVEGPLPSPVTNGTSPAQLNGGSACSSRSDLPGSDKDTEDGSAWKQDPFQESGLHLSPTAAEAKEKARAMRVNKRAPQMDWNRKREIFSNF

With “endogenous NHERF2 (from UniProt Q15599 1-337)” the binding was “binds”.

— article PMC10423209
